Source: article PMC12022009
No constants are given. Whether binding was seen depends on the method and setting. In cells and extracts the contact can be indirect. Some results given as binding are weak or reduced against the parent protein; the word gives no strength.

Protein sequences, listed by entry. Tags and fused reporters are not part of them.
UniProt Q15365: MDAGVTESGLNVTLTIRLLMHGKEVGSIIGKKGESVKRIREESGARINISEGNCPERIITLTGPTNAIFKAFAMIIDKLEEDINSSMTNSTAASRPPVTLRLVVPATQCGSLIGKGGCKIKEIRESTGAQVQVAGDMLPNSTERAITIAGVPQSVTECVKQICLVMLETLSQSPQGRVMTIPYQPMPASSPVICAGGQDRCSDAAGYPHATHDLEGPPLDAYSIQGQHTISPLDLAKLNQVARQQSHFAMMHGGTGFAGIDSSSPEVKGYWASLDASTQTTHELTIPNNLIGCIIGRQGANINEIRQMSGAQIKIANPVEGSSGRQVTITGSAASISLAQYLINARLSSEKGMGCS

How the values were obtained:
[1] = biological target: T1, BCAT2 (human (endogenous in PCa cells)) (UniProt O15382); test: co-IP; Co-IP kit (Epizyme); lysate incubated with antibody and added to protein A/G agarose resin for 1 h at room temperature; IgG as negative control, input as positive control; Western blot
T1 sequence: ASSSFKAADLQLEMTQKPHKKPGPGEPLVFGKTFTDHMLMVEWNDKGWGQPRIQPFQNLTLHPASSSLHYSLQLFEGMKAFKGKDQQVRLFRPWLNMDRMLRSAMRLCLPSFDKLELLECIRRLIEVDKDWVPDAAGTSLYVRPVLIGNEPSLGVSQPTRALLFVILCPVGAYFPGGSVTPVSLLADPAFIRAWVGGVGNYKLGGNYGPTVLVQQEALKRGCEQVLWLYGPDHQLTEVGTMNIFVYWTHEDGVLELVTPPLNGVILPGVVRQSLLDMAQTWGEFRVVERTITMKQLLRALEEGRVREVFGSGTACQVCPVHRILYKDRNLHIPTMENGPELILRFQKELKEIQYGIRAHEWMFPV

[2] = biological target: T2, BCAT2-WT (UniProt O15382); test: co-IP; cells transfected with BCAT2-WT or point-mutation plasmids; Co-IP and Western blot
T2 sequence: T1 sequence

## PCBP1 (from UniProt Q15365 1-356)
[1]
  binding: binds
[2]
  binding: binds
